These are yes or no findings as the source states them, for the method shown. Binding seen in cells or lysates may run through a third protein. Binding can be weak; no strength is given.
Tests used:
PPK1-nYFP (Arabidopsis) = PPK1-nYFP (Arabidopsis) (UniProt Q7EMY5); experiment: split reporter; BiFC in tobacco leaves; nYFP and cYFP pair from one vector with H2B-mTagBFP as nuclear marker; imaged 72 h post-transfection; plants at 22°C or 44°C for 1 h before imaging
Flag-PPK1 (Arabidopsis) = Flag-PPK1 (Arabidopsis) (UniProt Q7EMY5); experiment: co-IP; HEK293T cells co-expressing Myc-CRY1 and Flag-PPKs; dark or blue light (100 μmol m^-2 s^-1) for 1 h at 22°C or 44°C; immunoprecipitation with FLAG-conjugated beads; detection with anti-FLAG and anti-CRY1
Flag-PPK3 (Arabidopsis) = Flag-PPK3 (Arabidopsis) (UniProt Q9SQR8); experiment: as above

The chains behind the UniProt entries cited, without tags or fusion partners. Where a name states a change or a piece, a line headed by the entry shows the natural chain unless it says otherwise.
UniProt Q9SQR8: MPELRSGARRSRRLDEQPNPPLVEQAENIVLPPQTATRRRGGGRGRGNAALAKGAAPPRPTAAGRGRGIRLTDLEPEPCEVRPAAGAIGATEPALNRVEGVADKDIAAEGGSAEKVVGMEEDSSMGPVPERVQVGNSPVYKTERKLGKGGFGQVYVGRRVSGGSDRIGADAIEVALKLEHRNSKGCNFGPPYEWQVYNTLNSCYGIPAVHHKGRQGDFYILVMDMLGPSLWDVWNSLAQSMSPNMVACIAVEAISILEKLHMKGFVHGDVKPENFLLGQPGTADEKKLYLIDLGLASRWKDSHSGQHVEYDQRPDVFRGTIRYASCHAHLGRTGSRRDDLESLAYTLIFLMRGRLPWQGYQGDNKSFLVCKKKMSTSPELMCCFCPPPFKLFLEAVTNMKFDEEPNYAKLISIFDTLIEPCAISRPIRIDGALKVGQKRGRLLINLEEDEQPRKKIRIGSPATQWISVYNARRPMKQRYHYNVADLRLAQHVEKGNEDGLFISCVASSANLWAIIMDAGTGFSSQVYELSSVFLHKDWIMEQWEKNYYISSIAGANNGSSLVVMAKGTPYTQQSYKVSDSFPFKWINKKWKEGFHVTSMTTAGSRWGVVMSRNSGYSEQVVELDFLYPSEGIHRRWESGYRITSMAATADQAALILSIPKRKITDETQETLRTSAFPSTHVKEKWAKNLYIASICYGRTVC
UniProt Q43125: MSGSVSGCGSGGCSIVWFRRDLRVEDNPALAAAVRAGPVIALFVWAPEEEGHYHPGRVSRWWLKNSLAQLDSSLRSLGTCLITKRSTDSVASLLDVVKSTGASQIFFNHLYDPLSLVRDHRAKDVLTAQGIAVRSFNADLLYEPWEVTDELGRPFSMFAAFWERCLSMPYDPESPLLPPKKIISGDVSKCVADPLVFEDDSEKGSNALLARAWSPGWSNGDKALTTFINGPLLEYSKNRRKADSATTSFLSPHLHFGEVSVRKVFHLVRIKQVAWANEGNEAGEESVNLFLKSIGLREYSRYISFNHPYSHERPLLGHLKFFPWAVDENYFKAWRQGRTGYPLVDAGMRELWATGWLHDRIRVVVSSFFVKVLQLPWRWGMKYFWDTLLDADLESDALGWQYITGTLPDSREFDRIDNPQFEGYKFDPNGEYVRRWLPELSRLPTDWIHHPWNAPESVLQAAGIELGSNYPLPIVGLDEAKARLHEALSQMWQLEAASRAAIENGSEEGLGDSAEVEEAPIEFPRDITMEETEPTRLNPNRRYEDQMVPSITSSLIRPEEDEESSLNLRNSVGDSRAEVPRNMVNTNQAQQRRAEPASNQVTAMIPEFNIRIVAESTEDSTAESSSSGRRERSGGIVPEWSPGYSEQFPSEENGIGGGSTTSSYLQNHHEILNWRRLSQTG

binding (PPK1-nYFP (Arabidopsis))	binding (Flag-PPK1 (Arabidopsis))	binding (Flag-PPK3 (Arabidopsis))	Substance
binds	–	–	CRY1-cYFP (from UniProt Q43125 1-681)
–	binds	binds	Myc-CRY1 (from UniProt Q43125 1-681)
